Where “and” joins values, the source holds several entries; their conditions need not be identical. Equal values may be shown once. Where a name gives a salt, the structure may show the parent alone. The list shows a part of the results. This data set is noisy: repeats of one test often differ as much as different tests do.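 PR50, a 50-repeat proline–arginine dipeptide protein from C9ORF72 (ALS/FTD), was expressed by transfection in U-2 OS human cells stably carrying a GFP sensor with import and classical export signals. Per-well nuclear-minus-cytoplasm GFP, normalized between in-plate DMSO (low) and PR-only (high), was scored versus other test wells; compounds well below zero were hits reversing PR.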
Each compound was assayed on U-2 OS NCT-C biosensor cells expressing PR50 (assay: Z-score of normalised NCT-C biosensor translocation index in PR50-expressing cells; higher = more nuclear biosensor (more disrupted nuclear export)). Conditions: 3 µM; 24 h.
For CCC1(C)CC(=O)NC1=O (stereo unspecified) [Ethosuximide], the Z-score was inactive: 0.394. With NC[C@@H]1O[C@H](O[C@H]2[C@@H](O)[C@H](O[C@@H]3[C@@H](O)[C@H](N)C[C@H](N)[C@H]3O[C@H]3O[C@H](CN)[C@@H](O)[C@H](O)[C@H]3N)O[C@@H]2CO)[C@H](N)[C@@H](O)[C@@H]1O [Neomycin] the Z-score was inactive: -0.244. For Cc1c(C(=O)N2CCOc3ccc(-c4ccc(N)nc4)cc3C2)ccc(S(C)(=O)=O)c1F, the Z-score was inactive: -0.272. In the case of OC[C@H]1NC[C@@H](O)[C@@H]1O [1,4-Dideoxy-1,4- imino-D-arabinitol], the Z-score is reported as inactive: 0.385. In the case of COc1cc2nc(N3CCCN(C)CC3)nc(NC3CCN(Cc4ccccc4)CC3)c2cc1OC, the Z-score is reported as inactive: 0.0856 and inactive: 0.459. With CN(C)CCCc1cc(C(=O)Nc2ccc(-c3ccncc3)cc2)ccc1O the Z-score was inactive: 0.589. NC1CONC1=O (racemic) [DL-Cycloserine] was tested, and the Z-score was inactive: -0.304. CCc1nn(CCCN2CCN(c3cccc(Cl)c3)CC2)c(=O)n1CCOc1ccccc1 [Nefazodone·HCl] was tested, and the Z-score was inactive: -0.445. In the case of O=C1c2c(O)ccc(O)c2C(=O)c2c(NCCNCCO)ccc(NCCNCCO)c21 [Mitoxantrone·2HCl], the Z-score is reported as inactive: -0.0496. With O=C1c2c(O)ccc(O)c2C(=O)c2c(NCCNCCO)ccc(NCCNCCO)c21 [Mitoxantrone dihydrochloride] the Z-score was inactive: -0.538. CCOC(=O)C1=C(C)NC(C)=C(C(=O)OC)C1c1cccc(Cl)c1Cl (stereo unspecified) [Felodipine] was tested, and the Z-score was inactive: -0.333. In the case of Cc1nc2sccn2c(=O)c1CCN1CCC(=C(c2ccc(F)cc2)c2ccc(F)cc2)CC1 [Ritanserin], the Z-score is reported as inactive: -1.21. For CC(C)(C)NC[C@H](O)COc1cccc2c1CCCC2=O [Levobunolol·HCl], the Z-score was inactive: 0.303. For C[N+](C)(C)CCOC(N)=O [Carbachol (Carbamylcholine ) Chloride], the Z-score was inactive: -0.295. With C[N+](C)(C)CCOC(N)=O [Carbachol] the Z-score was inactive: 0.384. For COC(=O)[C@H]1[C@H]2C[C@H]3c4[nH]c5cc(OC)ccc5c4CCN3C[C@H]2C[C@@H](OC(=O)c2cc(OC)c(OC)c(OC)c2)[C@@H]1OC [(-)-Isoreserpine], the Z-score was inactive: 0.0047. For CCN1C(=O)C=CC1=O [N-Ethylmaleimide], the Z-score was inactive: -0.0482. With CCCC(=O)NCCc1csc(-c2ccc(Cl)cc2)n1 [Azoramide] the Z-score was inactive: 0.889. In the case of CN(C)CCc1c[nH]c2ccc(CS(=O)(=O)N3CCCC3)cc12 [Almotriptan malate], the Z-score is reported as inactive: -0.135. With CN1CCN2c3ccccc3Cc3ccccc3C2C1 (stereo unspecified) [Mianserin hydrochloride] the Z-score was inactive: -0.486. In the case of CCCCc1ncc(/C=C(\Cc2cccs2)C(=O)O)n1Cc1ccc(C(=O)O)cc1 [Eprosartan Mesylate], the Z-score is reported as inactive: 0.125. For CCCCc1ncc(/C=C(\Cc2cccs2)C(=O)O)n1Cc1ccc(C(=O)O)cc1 [Eprosartan mesylate], the Z-score was inactive: -0.407. With N[C@@H](Cc1ccc(O)c(O)c1)C(=O)O [L-3,4-Dihydroxy phenylalanine] the Z-score was inactive: -0.173. C[C@H]1[C@H](C)CC[C@]2(C(=O)O)CC[C@]3(C)C(=CC[C@@H]4[C@@]5(C)C[C@@H](O)[C@H](O)[C@@](C)(CO)[C@@H]5[C@H](O)C[C@]43C)[C@H]12 [Madecassic acid] was tested, and the Z-score was inactive: -0.602. O=c1cc(N2CCOCC2)oc2c(-c3ccccc3)cccc12 [LY-294,002  hydrochloride] was tested, and the Z-score was inactive: -0.253. With CN1c2ccccc2C(=O)N2CCc3c([nH]c4ccccc34)C21 (stereo in doubt) [Evodiamine] the Z-score was inactive: -0.538. CC(C)NNC(=O)c1ccncc1 [Iproniazid phosphate] was tested, and the Z-score was inactive: 0.842. O=C(O)c1cc(=O)c2ccccc2[nH]1 [Kynurenic acid] was tested, and the Z-score was inactive: -0.155. C=CCNc1ncnc2ccc(Br)cc12 was tested, and the Z-score was inactive: 0.655. C[C@H]1C(=O)CC[C@@H]2[C@]1(C)CC[C@H]1[C@@]2(C)CC[C@@]2(C)[C@@H]3CC(C)(C)CC[C@]3(C)CC[C@]12C [Friedelin] was tested, and the Z-score was inactive: -0.00806. With Cc1ccc(Nc2nccc(N(C)c3ccc4c(C)n(C)nc4c3)n2)cc1S(N)(=O)=O [Pazopanib·HCl] the Z-score was inactive: 0.0363. CCc1ccc(/C=C2/SC(=S)NC2=O)cc1 was tested, and the Z-score was inactive: 0.249. With CCC[C@@H]1C[C@@H](C(=O)N[C@@H]([C@H]2O[C@H](SC)[C@H](O)[C@@H](O)[C@H]2O)[C@@H](C)O)N(C)C1 [Lincomycin] the Z-score was inactive: -0.329. With CCC[C@@H]1C[C@@H](C(=O)N[C@@H]([C@H]2O[C@H](SC)[C@H](O)[C@@H](O)[C@H]2O)[C@@H](C)O)N(C)C1 [Lincomycin·HCl monohydrate] the Z-score was inactive: 2.32. In the case of CO[C@H]1C[C@@H]2CC[C@@H](C)[C@@](O)(O2)C(=O)C(=O)N2CCCC[C@H]2C(=O)O[C@H]([C@H](C)C[C@@H]2CC[C@@H](OC(=O)C(C)(CO)CO)[C@H](OC)C2)CC(=O)[C@H](C)/C=C(\C)[C@@H](O)[C@@H](OC)C(=O)[C@H](C)C[C@H](C)/C=C/C=C/C=C/1C [Temsirolimus], the Z-score is reported as inactive: -0.533. For C#C[C@]1(O)CC[C@H]2[C@@H]3CCC4=Cc5oncc5C[C@]4(C)[C@H]3CC[C@@]21C [Danazol], the Z-score was inactive: 0.292. CC12CC3CC(C)(C1)CC(N)(C3)C2 [Memantine·HCl] was tested, and the Z-score was inactive: -0.999. With CC12CC3CC(C)(C1)CC(N)(C3)C2 [Memantine hydrochloride] the Z-score was inactive: 0.0292. For O=C(O)c1cc2cc(F)ccc2[nH]1 [5-Fluoroindole-2- carboxylic acid], the Z-score was inactive: -0.0667. With COc1ccc(-c2ccc3cc(C(=O)O)ccc3c2)cc1C12CC3CC(CC(C3)C1)C2 [Adapalene] the Z-score was inactive: 0.367. O=c1[nH]c(=O)n([C@H]2C[C@H](O)[C@@H](CO)O2)cc1I [Idoxuridine] was tested, and the Z-score was inactive: -0.0986.
